Square brackets hold non-standard residues; d marks the D form. Ends that are not written are not given here. * marks the point of attachment. Mtr = COc1cc(C)c(S(=O)(=O)*)c(C)c1C; Boc = CC(C)(C)OC(=O)*
Experiment: general procedure: solution-phase peptide synthesis; HBTU; PyBOP/HOBT; DEPBT/HOBT
[1] = coupling step, calculated from HPLC analysis

## Boc-[dL]LR(Mtr)P-NHEt
Coupling step, based on HPLC analysis
  step yield: 60%

## Pyr-His(Trt)-Trp(boc)-Ser(tBu)-Tyr(tBu)-OAllyl
[1]
  step yield: 78%

## Pyr-His(Trt)-Trp(boc)-Ser(tBu)-Tyr(tBu)-D-Leu-Leu-Arg(Mtr)-Pro-NHEt
[1]
  step yield: 68%

## [dL]LR(Mtr)P-NHEt
Late stage modification step, based on HPLC
  step yield: 80%

## Pyr-His-Trp-Ser-Tyr-D-Leu-Leu-Arg-Pro-NHEt
Late stage modification step, calculated from HPLC analysis
  step yield: 59%

## Pyr-His(Trt)-Trp(boc)-Ser(tBu)-Tyr(tBu)-OH
Late stage modification step
  step yield: 94%
